{"source": "PubChem BioAssay AID1259424 (University of Nebraska Medical Center, 2018)", "aim": "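Seek colon cancer survival genes behaving like KSR1, using a six-gene signature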 (primary screen)", "cells": "human HCT116 colon cancer cells", "reagent": "siRNA pool against human genes, 50 nM", "measurement": "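Six signature mRNAs by branched-DNA multiplex assay, scaled to two housekeeping genes and non-targeting median, log2; matched to mean KSR1 knockdown profile by Pearson correlation and euclidean distance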", "direction": "mean correlation with KSR1 profile: higher = expression change more like KSR1 knockdown; mean distance from KSR1 profile: higher = expression change less like KSR1 knockdown", "note": "Here is a random part of about 14,000 reagents. 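Higher correlation or smaller distance means closer resemblance to KSR1 loss; control wells, including KSR1 knockdowns, recur on many plates.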 Further read-outs or replicates are left out here. Not given: the time to read-out."}
{"target gene":"HES1","mean correlation with KSR1 profile":0.375,"mean distance from KSR1 profile":2.1}
{"target gene":"RNASE4","mean correlation with KSR1 profile":0.685,"mean distance from KSR1 profile":0.959}
{"target gene":"GBP2","mean correlation with KSR1 profile":0.13,"mean distance from KSR1 profile":2.07}
{"target gene":"MLKL","mean correlation with KSR1 profile":0.17,"mean distance from KSR1 profile":2.32}
{"target gene":"APOBEC3C","mean correlation with KSR1 profile":0.541,"mean distance from KSR1 profile":2.09}
{"target gene":"TGIF2LY","mean correlation with KSR1 profile":0.234,"mean distance from KSR1 profile":1.54}
{"target gene":"HSFX1","mean correlation with KSR1 profile":-0.472,"mean distance from KSR1 profile":2.85}
{"target gene":"WDR11","mean correlation with KSR1 profile":0.522,"mean distance from KSR1 profile":2.55}
{"target gene":"LMBR1L","mean correlation with KSR1 profile":0.0891,"mean distance from KSR1 profile":1.42}
{"target gene":"MARK1","mean correlation with KSR1 profile":-0.0689,"mean distance from KSR1 profile":2.73}
{"target gene":"RBMS3","mean correlation with KSR1 profile":0.409,"mean distance from KSR1 profile":1.17}
{"target gene":"SYK","mean correlation with KSR1 profile":0.133,"mean distance from KSR1 profile":1.98}
{"target gene":"ZC3H12A","mean correlation with KSR1 profile":0.603,"mean distance from KSR1 profile":1.78}
{"target gene":"PPP4R2","mean correlation with KSR1 profile":0.413,"mean distance from KSR1 profile":1.31}
{"target gene":"CHST10","mean correlation with KSR1 profile":0.739,"mean distance from KSR1 profile":1.71}
{"target gene":"CMA1","mean correlation with KSR1 profile":-0.0385,"mean distance from KSR1 profile":2.75}
{"target gene":"CGRRF1","mean correlation with KSR1 profile":0.105,"mean distance from KSR1 profile":1.15}
{"target gene":"ZNF492","mean correlation with KSR1 profile":-0.29,"mean distance from KSR1 profile":2.36}
{"target gene":"SPATC1L","mean correlation with KSR1 profile":0.846,"mean distance from KSR1 profile":1.06}
{"target gene":"IL19","mean correlation with KSR1 profile":0.188,"mean distance from KSR1 profile":3.49}
{"target gene":"DTYMK","mean correlation with KSR1 profile":0.262,"mean distance from KSR1 profile":2.25}
{"target gene":"CLTRN","mean correlation with KSR1 profile":-0.0879,"mean distance from KSR1 profile":1.3}
{"target gene":"DEPP1","mean correlation with KSR1 profile":0.414,"mean distance from KSR1 profile":2.18}
{"target gene":"ACKR2","mean correlation with KSR1 profile":0.686,"mean distance from KSR1 profile":1.99}
{"target gene":"RAD9A","mean correlation with KSR1 profile":0.336,"mean distance from KSR1 profile":0.874}
{"target gene":"ORC2","mean correlation with KSR1 profile":0.00075,"mean distance from KSR1 profile":1.35}
{"target gene":"RPL6","mean correlation with KSR1 profile":0.234,"mean distance from KSR1 profile":4}
{"target gene":"KIR2DS3","mean correlation with KSR1 profile":-0.185,"mean distance from KSR1 profile":2.58}

Quoted from above, 2 entries:
{"target gene":"CLTRN","mean correlation with KSR1 profile":-0.0879,"mean distance from KSR1 profile":1.3}
{"target gene":"DEPP1","mean correlation with KSR1 profile":0.414,"mean distance from KSR1 profile":2.18}
